# Source: PubChem BioAssay AID248 (DTP/NCI, 2004)
# The list is a part of this screen's results and no random one: it gathers tests that were run many times, whatever their T/C, doses with no T/C, and many T/C values between a quarter and a half above the control. Other doses and runs of a compound stand elsewhere. T/C gives the treated animals as a percentage of the vehicle group. Some doses have a count of surviving animals in place of a T/C: the source holds a T/C of zero for them, seemingly a mark for toxic or unscored doses. Some survivor counts are full or nearly so, which does not show that the dose was tolerated: survival well below the control is almost never listed, so the zero probably covers shortened survival too. Counts of survivors are from the toxicity check (mostly the fifth day) where no day follows; animals may have died later. Schedules are NCI's codes, taken here to give the interval after Q, in days (D) or hours (H), and the number of doses after X. Some schedules carry Z or #; the key to these is not given. Some doses were run more than once; the values are given in rising order. For survival time, the PubChem record calls one and a half times the control and up active, and a quarter to a half above the control has no call in these data; cut-offs in other NCI protocols can differ.
# System: L1210 leukemia ip in BDF1 mice, survival T/C
# Experiment: NCI In Vivo Anticancer Drug Screen. Data for tumor model L1210 Leukemia (intraperitoneal) in B6D2F1 (BDF1) mice
# Conditions: T/C endpoint: mean survival time, higher T/C = longer survival
# [1] = dose: 400.0 mg/kg/injection, schedule: Q04DX003 (ip), vehicle: Klucel (hydroxypropylcellulose) (HPC)
# [2] = dose: 100.0 mg/kg/injection, schedule: Q01DX009 (ip), vehicle: Klucel (hydroxypropylcellulose) (HPC)
# [3] = dose: 200.0 mg/kg/injection, schedule: Q01DX009 (ip), vehicle: Klucel (hydroxypropylcellulose) (HPC)
# [4] = dose: 400.0 mg/kg/injection, schedule: Q01DX009 (ip), vehicle: Klucel (hydroxypropylcellulose) (HPC)
# [5] = dose: 200.0 mg/kg/injection, schedule: Q04DX003 (ip), vehicle: saline
# [6] = dose: 400.0 mg/kg/injection, schedule: Q04DX003 (ip), vehicle: saline
# [7] = dose: 400.0 mg/kg/injection, schedule: Q01DX001 (ip), vehicle: saline
# [8] = dose: 200.0 mg/kg/injection, schedule: Q01DX009 (ip), vehicle: saline
# [9] = dose: 100.0 mg/kg/injection, schedule: Q01DX001 (ip), vehicle: carboxymethylcellulose (CMC)
# [10] = dose: 400.0 mg/kg/injection, schedule: Q01DX001 (ip), vehicle: carboxymethylcellulose (CMC)
# [11] = dose: 400.0 mg/kg/injection, schedule: Q01DX001 (ip), vehicle: other
compound,measurement,setting,value
CN(N=O)C(=O)NCCCl,T/C,"dose: 50.0 mg/kg/injection, schedule: Q01DX001 (ip), vehicle: Klucel (hydroxypropylcellulose) (HPC), evaluated on day 5",102 and 103 % of control
same,T/C,"dose: 50.0 mg/kg/injection, schedule: Q01DX001 (ip), vehicle: Klucel (hydroxypropylcellulose) (HPC), evaluated on day 45",102 and 103 % of control
same,T/C,"dose: 50.0 mg/kg/injection, schedule: Q01DX Z (ip), vehicle: carboxymethylcellulose (CMC)",125 % of control
same,T/C,"dose: 100.0 mg/kg/injection, schedule: Q01DX001 (ip), vehicle: Klucel (hydroxypropylcellulose) (HPC), evaluated on day 5",103 and 106 % of control
same,T/C,"dose: 100.0 mg/kg/injection, schedule: Q01DX001 (ip), vehicle: Klucel (hydroxypropylcellulose) (HPC), evaluated on day 45",103 and 106 % of control
same,T/C,"dose: 100.0 mg/kg/injection, schedule: Q01DX Z (ip), vehicle: carboxymethylcellulose (CMC)",135 % of control
same,T/C,"dose: 150.0 mg/kg/injection, schedule: Q01DX Z (ip), vehicle: carboxymethylcellulose (CMC)",146 % of control
same,T/C,"dose: 200.0 mg/kg/injection, schedule: Q01DX Z (ip), vehicle: carboxymethylcellulose (CMC)",141 % of control
same,survivor count,"dose: 400.0 mg/kg/injection, schedule: Q01DX001 (ip), vehicle: Klucel (hydroxypropylcellulose) (HPC)",2 of 9
O=NN(Cc1ccc(Cl)cc1)C(=O)NCc1ccc(Cl)cc1,T/C,"dose: 300.0 mg/kg/injection, schedule: Q01DX Z (ip), vehicle: carboxymethylcellulose (CMC)",127 % of control
CC(=O)N1C(=O)C(Cl)C(Cl)C(=O)N1C(C)=O (configuration not stated),survivor count,[1],3 of 6
CCCCOP(=O)(/C=C\c1ccco1)OCCCC,survivor count,"dose: 200.0 mg/kg/injection, schedule: Q01DX009 (ip), vehicle: carboxymethylcellulose (CMC)",2 of 6
same,survivor count,"dose: 400.0 mg/kg/injection, schedule: Q01DX009 (ip), vehicle: carboxymethylcellulose (CMC)",0 of 6
CCCCC(=O)N/N=C/c1ccccc1O,survivor count,[2],6 of 6
same,survivor count,[3],6 of 6
same,survivor count,[4],6 of 6
CC[n+]1ccc2cc(OC)c(OC)cc2c1Cc1ccc(OC)c(OC)c1,survivor count,"dose: 100.0 mg/kg/injection, schedule: Q01DX009 (ip), vehicle: saline",0 of 6
same,survivor count,[5],2 of 6
same,survivor count,[6],0 of 6
COc1ccccc1/C=N/NC(=O)c1cccc2ccccc12,survivor count,"dose: 100.0 mg/kg/injection, schedule: Q01DX001 (ip), vehicle: saline",4 of 4
same,survivor count,"dose: 200.0 mg/kg/injection, schedule: Q01DX001 (ip), vehicle: saline",4 of 4
C/C(CC(O)(C(F)(F)Cl)C(F)(F)Cl)=N\O,survivor count,"dose: 400.0 mg/kg/injection, schedule: Q01DX009 (ip), vehicle: saline with Tween-80",3 of 6
O=C(CI)c1ccc[nH]1,survivor count,[7],0 of 4
CC(C)(C)C1COC(=O)C1 (configuration not stated),survivor count,"dose: 40.0 mg/kg/injection, schedule: Q01DX001 (ip), vehicle: saline",1 of 6
same,survivor count,"dose: 75.0 mg/kg/injection, schedule: Q01DX001 (ip), vehicle: acetone",0 of 6
same,survivor count,"dose: 150.0 mg/kg/injection, schedule: Q01DX001 (ip), vehicle: acetone",0 of 6
same,survivor count,"dose: 300.0 mg/kg/injection, schedule: Q01DX001 (ip), vehicle: acetone",1 of 6
ClC(c1ccccc1)C(Cl)c1ccccc1 (configuration not stated),survivor count,"dose: 50.0 mg/kg/injection, schedule: Q01DX009 (ip), vehicle: saline with Tween-80",3 of 3
same,survivor count,"dose: 100.0 mg/kg/injection, schedule: Q01DX009 (ip), vehicle: saline with Tween-80",3 of 3
same,survivor count,"dose: 200.0 mg/kg/injection, schedule: Q01DX009 (ip), vehicle: saline with Tween-80",1 of 3
CCCCC(C=NCC(CCCC)(CCN(C)C)c1cccc2ccccc12)(CCN(C)C)c1cccc2ccccc12 (configuration not stated),survivor count,[2],0 of 6
same,survivor count,[3],0 of 6
same,survivor count,[4],0 of 6
CN(C)CCC(C(=O)N(C)C)(c1ccccc1)c1ccccc1,survivor count,"dose: 300.0 mg/kg/injection, schedule: Q01DX001 (ip), vehicle: carboxymethylcellulose (CMC)",0 of 6
CCCCCC[n+]1cccc(C(N)=O)c1,survivor count,[1],3 of 6
Cc1ccc(Nc2ccc(Nc3ccc(C)cc3)c3c2C(=O)c2c(O)ccc(O)c2C3=O)cc1,survivor count,"dose: 100.0 mg/kg/injection, schedule: Q01DX001 (ip), vehicle: Klucel (hydroxypropylcellulose) (HPC)",3 of 3
Cc1cccc(Nc2nc(N)nc(N)c2N)c1,survivor count,"dose: 100.0 mg/kg/injection, schedule: Q01DX Z (ip), vehicle: saline",4 of 6
same,survivor count,"dose: 200.0 mg/kg/injection, schedule: Q01DX Z (ip), vehicle: saline",0 of 6
O=C(COc1ccccc1)NCCBr,T/C,"dose: 200.0 mg/kg/injection, schedule: Q04DX003 (ip), vehicle: Klucel (hydroxypropylcellulose) (HPC)",126 % of control
O=S(=O)(NC(=S)c1ccccc1)c1ccccc1,survivor count,[8],3 of 3
O=c1[nH]cnc2ccnn12,survivor count,[8],1 of 6
same,survivor count,[6],0 of 6
CC(C)(C)c1cc(Br)c(O)c(C(=O)O)c1,survivor count,[9],4 of 4
same,survivor count,[10],2 of 4
[Cu+].[S-]c1ccsc1,survivor count,[9],0 of 4
same,survivor count,"dose: 200.0 mg/kg/injection, schedule: Q01DX001 (ip), vehicle: carboxymethylcellulose (CMC)",0 of 4
same,survivor count,[10],1 of 4
CC[N+](CC)(CC)CCCNC(=O)C12CC3CC(CC(C3)C1)C2,survivor count,"dose: 100.0 mg/kg/injection, schedule: Q04DX002 (ip), vehicle: saline",0 of 3 and 1 of 3
same,survivor count,"dose: 200.0 mg/kg/injection, schedule: Q04DX002 (ip), vehicle: saline",0 of 3
same,survivor count,"dose: 400.0 mg/kg/injection, schedule: Q04DX002 (ip), vehicle: saline",0 of 3
CNC1(Cc2ccc(F)cc2)CCC1,survivor count,[8],0 of 6
same,survivor count,"dose: 400.0 mg/kg/injection, schedule: Q01DX009 (ip), vehicle: saline",0 of 6
CN(C)Cc1ccc([N+](=O)[O-])cc1,survivor count,"dose: 150.0 mg/kg/injection, schedule: Q01DX001 (ip), vehicle: other",3 of 6
same,survivor count,"dose: 300.0 mg/kg/injection, schedule: Q01DX001 (ip), vehicle: other",0 of 6
same,survivor count,[6],6 of 6
CCOC(=O)Sc1ccccc1,survivor count,[11],0 of 3
CC1(O)C2CC3CC(C2)CC1C3 (configuration not stated),survivor count,"dose: 100.0 mg/kg/injection, schedule: Q04DX002 (ip), vehicle: Klucel (hydroxypropylcellulose) (HPC)",3 of 3
O=S1(=O)C(Cl)(Cl)SC(Cl)(Cl)S(=O)(=O)C1(Cl)Cl,survivor count,"dose: 75.0 mg/kg/injection, schedule: Q01DX009 (ip), vehicle: saline",0 of 6
same,survivor count,"dose: 100.0 mg/kg/injection, schedule: Q04DX003 (ip), vehicle: saline",3 of 6
same,survivor count,"dose: 115.0 mg/kg/injection, schedule: Q01DX009 (ip), vehicle: saline",0 of 6
same,survivor count,"dose: 170.0 mg/kg/injection, schedule: Q01DX009 (ip), vehicle: saline",0 of 6
same,survivor count,[5],0 of 6
same,survivor count,[7],0 of 6
O=C1C(NC(=O)C2CCCCC2)=C(N2CC2)C(=O)C(NC(=O)C2CCCCC2)=C1N1CC1,T/C,"dose: 200.0 mg/kg/injection, schedule: Q01DX Z (ip), vehicle: Klucel (hydroxypropylcellulose) (HPC)",125 % of control
COc1ccc(C(=O)c2cccc3c2-c2ccccc2C3(c2ccc(OC)c(C)c2)c2ccc(OC)c(C)c2)cc1C,survivor count,"dose: 100.0 mg/kg/injection, schedule: Q01DX001 (ip), vehicle: other",4 of 4
same,survivor count,"dose: 200.0 mg/kg/injection, schedule: Q01DX001 (ip), vehicle: other",4 of 4
same,survivor count,[11],4 of 4
